A word on the IC50: it is the midpoint of a concentration-inhibition curve.

We go through one compound from ChEMBL document CHEMBL1125556, “Fluoroquinolones: relationships between structural variations, mammalian cell cytotoxicity, and antimicrobial activity” (J Med Chem, 1992).

This experiment concerns V79. Description: Mammalian cell cytotoxicity test in chinese hamster V79 cells (clonogenic cytotoxicity). Particulars: Cricetulus griseus. The format is functional, cell-based.

Compound `CCn1cc(C(=O)O)c(=O)c2cc(F)c(N3CCN(C)CC3)cc21` [PEFLOXACIN] came in with a half-maximal inhibitory concentration (IC50) of over 500 µg/mL.
